Our source for the GFP+ MAC1+ double positive values is PubChem BioAssay AID624256 (NMMLSC, 2012).

Molecules are shown by their SMILES. The list shows a part of the results. Some tests of the compounds listed are not included; inactive here does not mean inactive elsewhere.

The test can be described thus: HoxA9-arrested leukemia cell differentiation promoters – flow cytometry, MLPCN library, primary screen (AID 624256).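 Also: cells exposed to compound for four days before flow analysis.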 Conditions: ER-HoxA9 myeloid progenitors, lysozyme-GFP differentiation, measured here: differentiation confirmed by MAC1 staining, at 10 µM, stronger effect = higher value.
In turn, `O=C(OC1CN2CCC1CC2)C(CO)(c1ccccc1)c1ccccc1` (centres undefined) registered a GFP+ MAC1+ double positive of 1.1%. `C=C(C)C#CC(O)(C(=O)OC1CCN(C)CC1)c1ccccc1` (centres undefined): the GFP+ MAC1+ double positive is 0.8%. Regarding `COc1ccc(Br)c(C(=O)NCC2(N3CCCCC3)CCCCC2)c1`, the GFP+ MAC1+ double positive turned out to be 0.4%.

Consider `CC(C)Oc1ccc(C(=O)NCC2(N(C)C)CCCCC2)cc1`, for which the GFP+ MAC1+ double positive was found to be 0.5%. The figure for `O=C(OCCN1CCCC1)C(O)(c1ccccc1)c1ccccc1` is 1.8%. For `CN(C)c1cccc(C(=O)NCC2(N(C)C)CCCCC2)c1`, the GFP+ MAC1+ double positive came out at 0.3%. `CN(C)C1(CNC(=O)c2ccc(Br)cc2)CCCCC1` gave a GFP+ MAC1+ double positive of 0.5%. In the case of `COc1cc(C(=O)NCC2(N(C)C)CCCCC2)c([N+](=O)[O-])cc1OC`, the GFP+ MAC1+ double positive was found to be 0.8%. `COc1cccc(C(=O)NCC2(N3CCCCC3)CCCCC2)c1` yielded a GFP+ MAC1+ double positive of 0.1%. `COc1ccc(Cl)cc1C(=O)NCC1(N(C)C)CCCCC1` displayed a GFP+ MAC1+ double positive of 0.7%. On to `O=C(NCC1(N2CCCCC2)CCCCC1)c1cccc(Cl)c1`, for which the GFP+ MAC1+ double positive is 4.8%. The figure for `Cc1ccccc1C(=O)NCC1(N2CCCCC2)CCCCC1` is 0.1%; for `CN(C)c1ccc(C(=O)NCC2(N(C)C)CCCCC2)cc1` it is 0.3%; for `CN(C)C1CCCC1OC(=O)C(O)(c1ccccc1)c1ccccc1` (centres undefined) it is 0.1%.

In turn, `C=CCN1CCN(CCOC(=O)C(O)(c2ccccc2)c2ccccc2)CC1` showed a GFP+ MAC1+ double positive of 0.4%. Compound `O=C(NCC1(N2CCCCC2)CCCCC1)c1cc(F)c(F)cc1Cl` had a GFP+ MAC1+ double positive of 1.9%. On to `COc1ccc(C(=O)NCC2(N(C)C)CCCCC2)cc1`, for which the GFP+ MAC1+ double positive amounted to 0.2%.

For the compound `CCN1CCCC(OC(=O)C2(O)c3ccccc3C=Cc3ccccc32)C1` (centres undefined), the GFP+ MAC1+ double positive was 1%. In the case of `Cc1cc(C(=O)NCC2(N3CCCCC3)CCCCC2)ccc1[N+](=O)[O-]`, the GFP+ MAC1+ double positive was 0.5%. `O=C(NCC1(N2CCCCC2)CCCCC1)c1cc([N+](=O)[O-])ccc1Cl`: the GFP+ MAC1+ double positive came out at 0.1%. Compound `CN1[C@@H]2CC[C@H]1CC(OC(=O)C(O)(c1ccccc1)c1ccccc1)C2` (some centres undefined) returned a GFP+ MAC1+ double positive of 0.4%.

Compound `CCN(CC)CC(C)C(C)OC(=O)C(O)(c1ccccc1)c1ccccc1` (centres undefined) had a GFP+ MAC1+ double positive of 1.7%. `COc1cc(SC)ccc1C(=O)NCC1(N(C)C)CCCCC1` returned a GFP+ MAC1+ double positive of 0.7%. In turn, `Cc1ccc(C(=O)NCC2(N3CCCCC3)CCCCC2)cc1` displayed a GFP+ MAC1+ double positive of 2.7%.
